# Laboratory results as given in the supplement of paper PMC8728848.
# The list shows a part of the results.
# B1: PX14343E-bfa-545-24-545 (Bacteroides fragilis) (protein)
# chain: LDRYPQEELSDGSFWKTPDDANKVVSDLYGYLSTWDQDNDINSDNATMGIKWAAGNVSKGIYDPADQGWSGDYANVRQCNLILSKIDEIPDYPEADKTKALGQVYFFRAYIYFNLIRSFGDVPYIDKPLDLKDMEGITRMPRAEVYEKIMADFDKAIAALPTEWGASDYGRVTKGAAMAMKARAALYYGNWDTAATEAKNVMDLGLYELYDKDNTGKYAELFWEKADGCDEFILVTQFNYPDKTHYLMGWECFPTKGWGGMNPTQSLVDAFEDSEGAPISKSKIYDPTDPFKNRDPRLEVDILHDGEEMYGVTIKVAPLASSGSTGINQHNDATETGYYGQKWLDPSLDPLSDGWNMGKDWVHIRYAEVLLTYAEAKNELQGLDPEAFDAVNQVRRRVGMPELQNTDPSKPTYCATQDDLRQRIRNEWRVEFCLEGGKRMWDIRRWGIAKDVLNAPFEGLKYKIVDNPNDPDKKVDGGKMCILYQGDPIILSGSRYSDNNYLFPVPQSEIDLNPALTQNPGY
# How the values were obtained:
# Assay in all cases: glycan array binding signal (z-score within array); higher = stronger binding
# Settings in all cases: glycan notation: IUPAC condensed, linker removed
# Neu5Ac(a2-8)Neu5Ac = target: Neu5Ac(a2-8)Neu5Ac
# In short: (§1)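 Negative Z-scores can be read as non-binding. The Z-score is calculated within each array and then averaged across arrays of one protein sequence at different concentrations or buffers and across linkers. Arrays, 3228 in all, were curated from the Consortium for Functional Glycomics database and kept only where the protein sequence was available.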
# [1] = target: Neu5Ac(a2-8)Neu5Ac(a2-3)Gal(b1-3)GalNAc(b1-4)[Neu5Ac(a2-3)]Gal(b1-4)Glc
# In short: as §1
# [2] = target: Neu5Ac(a2-8)Neu5Ac(a2-3)Gal(b1-3)GalNAc(b1-4)[Neu5Ac(a2-8)Neu5Ac(a2-3)]Gal(b1-4)Glc
# In short: as §1
# [3] = target: Neu5Ac(a2-8)Neu5Ac(a2-3)Gal(b1-4)Glc
# In short: as §1
# [4] = target: Neu5Ac(a2-8)Neu5Ac(a2-3)Gal(b1-4)GlcNAc
# In short: as §1
# [5] = target: Neu5Ac(a2-8)Neu5Ac(a2-3)[Gal(b1-3)GalNAc(b1-4)]Gal(b1-4)Glc
# In short: as §1
# [6] = target: Neu5Ac(a2-8)Neu5Ac(a2-3)[GalNAc(b1-4)]Gal(b1-4)Glc
# In short: as §1
# [7] = target: Neu5Ac(a2-8)Neu5Ac(a2-8)Neu5Ac
# In short: as §1
# [8] = target: Neu5Ac(a2-8)Neu5Ac(a2-8)Neu5Ac(a2-3)Gal(b1-4)Glc
# In short: as §1
# [9] = target: Neu5Ac(a2-8)Neu5Ac(a2-8)Neu5Ac(a2-3)[Gal(b1-3)GalNAc(b1-4)]Gal(b1-4)Glc
# In short: as §1
# [10] = target: Neu5Ac(a2-8)Neu5Ac(a2-8)Neu5Ac(a2-3)[GalNAc(b1-4)]Gal(b1-4)Glc
# In short: as §1
# [11] = target: Neu5Ac(a2-8)Neu5Ac(a2-8)Neu5Ac(a2-8)Neu5Ac(a2-3)[GalNAc(b1-4)]Gal(b1-4)Glc
# In short: as §1
# [12] = target: Neu5Ac(a2-8)Neu5Gc(a2-3)Gal(b1-4)GlcNAc
# In short: as §1
# [13] = target: Neu5Ac(b2-6)Gal(b1-4)GlcNAc
# In short: as §1
# Neu5Ac(b2-6)GalNAc = target: Neu5Ac(b2-6)GalNAc
# In short: as §1
# [14] = target: Neu5Ac9Ac(a2-3)Gal(b1-3)GlcNAc
# In short: as §1
# [15] = target: Neu5Ac9Ac(a2-3)Gal(b1-4)GlcNAc
# In short: as §1
# [16] = target: Neu5Ac9Ac(a2-6)Gal(b1-4)GlcNAc
# In short: as §1
# [17] = target: Neu5Gc(a2-3)Gal(b1-3)GlcNAc
# In short: as §1
# [18] = target: Neu5Gc(a2-3)Gal(b1-3)[Fuc(a1-4)]GlcNAc
# In short: as §1
# Neu5Gc(a2-3)Gal(b1-4)Glc = target: Neu5Gc(a2-3)Gal(b1-4)Glc
# In short: as §1
# [19] = target: Neu5Gc(a2-3)Gal(b1-4)GlcNAc
# In short: as §1
# [20] = target: Neu5Gc(a2-3)Gal(b1-4)GlcNAc(b1-3)Gal(b1-4)GlcNAc(b1-2)Man(a1-3)[Neu5Gc(a2-3)Gal(b1-4)GlcNAc(b1-3)Gal(b1-4)GlcNAc(b1-2)Man(a1-6)]Man(b1-4)GlcNAc(b1-4)GlcNAc
# In short: as §1
# [21] = target: Neu5Gc(a2-3)Gal(b1-4)[Fuc(a1-3)]GlcNAc
# In short: as §1
# [22] = target: Neu5Gc(a2-6)Gal(b1-4)GlcNAc
# In short: as §1
# Neu5Gc(a2-6)GalNAc = target: Neu5Gc(a2-6)GalNAc
# In short: as §1
# [23] = target: Neu5Gc(a2-8)Neu5Ac(a2-3)Gal(b1-4)GlcNAc
# In short: as §1
# [24] = target: Neu5Gc(a2-8)Neu5Gc(a2-3)Gal(b1-4)GlcNAc
# In short: as §1
# [25] = target: Neu5Gc(a2-8)Neu5Gc(a2-3)Gal(b1-4)GlcNAc(b1-3)Gal(b1-4)GlcNAc
# In short: as §1
# [26] = target: Neu5Gc(a2-8)Neu5Gc(a2-6)Gal(b1-4)GlcNAc
# In short: as §1
# [27] = target: Neu5Gc(b2-6)Gal(b1-4)GlcNAc
# In short: as §1
binder,measurement,setting,value
B1,glycan array binding signal (z-score),Neu5Ac(a2-8)Neu5Ac,-0.672
same,glycan array binding signal (z-score),[1],-0.456
same,glycan array binding signal (z-score),[2],-0.28
same,glycan array binding signal (z-score),[3],-0.996
same,glycan array binding signal (z-score),[4],-0.701
same,glycan array binding signal (z-score),[5],0.458
same,glycan array binding signal (z-score),[6],0.486
same,glycan array binding signal (z-score),[7],-0.367
same,glycan array binding signal (z-score),[8],0.562
same,glycan array binding signal (z-score),[9],-0.399
same,glycan array binding signal (z-score),[10],-0.298
same,glycan array binding signal (z-score),[11],2.6
same,glycan array binding signal (z-score),[12],-0.097
same,glycan array binding signal (z-score),[13],-0.513
same,glycan array binding signal (z-score),Neu5Ac(b2-6)GalNAc,-0.887
same,glycan array binding signal (z-score),[14],0.462
same,glycan array binding signal (z-score),[15],-0.239
same,glycan array binding signal (z-score),[16],-0.75
same,glycan array binding signal (z-score),[17],-0.465
same,glycan array binding signal (z-score),[18],0.107
same,glycan array binding signal (z-score),Neu5Gc(a2-3)Gal(b1-4)Glc,-0.205
same,glycan array binding signal (z-score),[19],0.54
same,glycan array binding signal (z-score),[20],-0.44
same,glycan array binding signal (z-score),[21],-0.376
same,glycan array binding signal (z-score),[22],-0.103
same,glycan array binding signal (z-score),Neu5Gc(a2-6)GalNAc,-0.46
same,glycan array binding signal (z-score),[23],-0.678
same,glycan array binding signal (z-score),[24],-1.07
same,glycan array binding signal (z-score),[25],-1.12
same,glycan array binding signal (z-score),[26],0.649
same,glycan array binding signal (z-score),[27],0.11

# Some of the entries so far, with tabs.
binder	measurement	setting	value
B1	glycan array binding signal (z-score)	[18]	0.107
same	glycan array binding signal (z-score)	Neu5Gc(a2-3)Gal(b1-4)Glc	-0.205
